Laboratory results taken from PMC5312391.
No constants are given. Whether binding was seen depends on the method and setting. Binding seen in cells or lysates may run through a third protein. Some binding calls cover weakened binding; strength is not graded here.

Protein sequences, listed by entry. Tags and fused reporters are not part of them.
UniProt P42224: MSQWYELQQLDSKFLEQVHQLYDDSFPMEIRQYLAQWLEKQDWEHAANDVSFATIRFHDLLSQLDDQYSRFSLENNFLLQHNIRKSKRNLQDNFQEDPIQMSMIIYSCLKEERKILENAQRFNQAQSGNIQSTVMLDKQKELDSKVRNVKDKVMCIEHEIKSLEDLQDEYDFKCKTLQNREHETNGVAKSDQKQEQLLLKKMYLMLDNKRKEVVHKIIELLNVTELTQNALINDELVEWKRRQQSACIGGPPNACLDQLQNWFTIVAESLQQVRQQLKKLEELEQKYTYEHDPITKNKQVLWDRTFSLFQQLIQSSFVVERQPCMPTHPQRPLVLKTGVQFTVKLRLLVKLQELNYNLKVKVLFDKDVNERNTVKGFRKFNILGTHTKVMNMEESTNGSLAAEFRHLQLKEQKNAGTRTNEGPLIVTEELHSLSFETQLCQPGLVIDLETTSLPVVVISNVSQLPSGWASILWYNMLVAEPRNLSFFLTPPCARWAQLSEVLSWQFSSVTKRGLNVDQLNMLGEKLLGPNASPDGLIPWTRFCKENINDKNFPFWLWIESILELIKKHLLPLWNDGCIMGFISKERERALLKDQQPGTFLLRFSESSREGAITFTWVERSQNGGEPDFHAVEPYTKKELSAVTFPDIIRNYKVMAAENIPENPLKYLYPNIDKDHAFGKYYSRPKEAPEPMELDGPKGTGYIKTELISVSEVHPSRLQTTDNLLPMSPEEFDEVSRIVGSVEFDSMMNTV
UniProt P40763: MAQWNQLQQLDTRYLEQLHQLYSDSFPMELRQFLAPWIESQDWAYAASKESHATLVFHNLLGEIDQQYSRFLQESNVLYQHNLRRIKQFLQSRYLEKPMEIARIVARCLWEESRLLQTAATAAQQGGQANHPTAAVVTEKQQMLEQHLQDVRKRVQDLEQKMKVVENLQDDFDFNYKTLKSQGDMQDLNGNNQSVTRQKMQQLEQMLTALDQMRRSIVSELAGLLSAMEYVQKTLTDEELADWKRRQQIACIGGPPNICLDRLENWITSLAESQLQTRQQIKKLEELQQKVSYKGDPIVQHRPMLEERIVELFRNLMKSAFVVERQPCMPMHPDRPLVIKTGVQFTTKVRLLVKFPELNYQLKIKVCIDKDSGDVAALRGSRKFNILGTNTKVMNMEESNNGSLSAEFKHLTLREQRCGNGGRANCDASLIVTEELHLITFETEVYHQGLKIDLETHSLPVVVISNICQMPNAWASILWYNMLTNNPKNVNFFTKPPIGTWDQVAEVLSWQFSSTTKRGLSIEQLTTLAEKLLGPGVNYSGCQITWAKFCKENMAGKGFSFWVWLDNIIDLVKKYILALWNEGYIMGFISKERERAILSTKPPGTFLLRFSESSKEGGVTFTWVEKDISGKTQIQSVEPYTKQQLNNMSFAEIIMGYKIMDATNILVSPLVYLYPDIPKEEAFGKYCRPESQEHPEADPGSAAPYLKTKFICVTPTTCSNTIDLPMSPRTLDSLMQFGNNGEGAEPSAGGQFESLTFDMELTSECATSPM
UniProt Q13547: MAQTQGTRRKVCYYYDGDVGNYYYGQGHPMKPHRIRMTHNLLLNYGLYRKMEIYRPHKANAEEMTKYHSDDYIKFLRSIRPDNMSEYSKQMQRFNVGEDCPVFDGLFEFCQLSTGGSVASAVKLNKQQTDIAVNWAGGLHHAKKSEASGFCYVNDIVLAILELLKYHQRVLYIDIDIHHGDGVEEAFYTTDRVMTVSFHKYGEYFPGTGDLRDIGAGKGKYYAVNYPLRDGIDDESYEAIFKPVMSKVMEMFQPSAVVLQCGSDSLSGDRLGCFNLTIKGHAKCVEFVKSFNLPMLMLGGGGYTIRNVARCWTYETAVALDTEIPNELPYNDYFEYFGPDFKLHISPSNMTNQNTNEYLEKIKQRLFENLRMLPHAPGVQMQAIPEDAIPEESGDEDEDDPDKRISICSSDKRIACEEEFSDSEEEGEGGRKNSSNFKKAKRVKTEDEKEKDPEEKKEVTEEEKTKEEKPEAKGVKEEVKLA

Assays:
[1] = target: phosphorylated STAT1 (human (endogenous in A549 or CL1-5 lung adenocarcinoma cells)) (UniProt P42224); experiment: co-IP; nuclear extracts (350 ug) from OSM-treated cells incubated overnight at 4°C with anti-STAT1 or anti-STAT3 antibody (or nonspecific IgG) on protein G Dynabeads; washed 3 times in 50 mM Tris pH 7.5, 170 mM NaCl, 13 mM MgCl2, 0.5% NP40, 0.3% Triton X-100; bound proteins detected by Western blotting
[2] = target: STAT3 (human (endogenous in A549 or CL1-5 lung adenocarcinoma cells)) (UniProt P40763); experiment: as above

Row | binding [1] | binding [2] | Molecule
1 | binds |  | HDAC1 (from UniProt Q13547 1-482)
2 | binds | no binding | PIAS4 (protein, UniProt Q8N2W9 1-510) MAAELVEAKNMVMSFRVSDLQMLLGFVGRSKSGLKHELVTRALQLVQFDCSPELFKKIKELYETRYAKKNSEPAPQPHRPLDPLTMHSTYDRAGAVPRTPLAGPNIDYPVLYGKYLNGLGRLPAKTLKPEVRLVKLPFFNMLDELLKPTELVPQNNEKLQESPCIFALTPRQVELIRNSRELQPGVKAVQVVLRICYSDTSCPQEDQYPPNIAVKVNHSYCSVPGYYPSNKPGVEPKRPCRPINLTHLMYLSSATNRITVTWGNYGKSYSVALYLVRQLTSSELLQRLKTIGVKHPELCKALVKEKLRLDPDSEIATTGVRVSLICPLVKMRLSVPCRAETCAHLQCFDAVFYLQMNEKKPTWMCPVCDKPAPYDQLIIDGLLSKILSECEDADEIEYLVDGSWCPIRAEKERSCSPQGAILVLGPSDANGLLPAPSVNGSGALGSTGGGGPVGSMENGKPGADVVDLTLDSSSSSEDEEEEEEEEEDEDEEGPRPKRRCPFQKGLVPAC
3 |  | binds | PIAS3 (protein, UniProt Q9Y6X2 1-628) MAELGELKHMVMSFRVSELQVLLGFAGRNKSGRKHELLAKALHLLKSSCAPSVQMKIKELYRRRFPRKTLGPSDLSLLSLPPGTSPVGSPGPLAPIPPTLLAPGTLLGPKREVDMHPPLPQPVHPDVTMKPLPFYEVYGELIRPTTLASTSSQRFEEAHFTFALTPQQVQQILTSREVLPGAKCDYTIQVQLRFCLCETSCPQEDYFPPNLFVKVNGKLCPLPGYLPPTKNGAEPKRPSRPINITPLARLSATVPNTIVVNWSSEFGRNYSLSVYLVRQLTAGTLLQKLRAKGIRNPDHSRALIKEKLTADPDSEVATTSLRVSLMCPLGKMRLTVPCRALTCAHLQSFDAALYLQMNEKKPTWTCPVCDKKAPYESLIIDGLFMEILSSCSDCDEIQFMEDGSWCPMKPKKEASEVCPPPGYGLDGLQYSPVQGGDPSENKKKVEVIDLTIESSSDEEDLPPTKKHCSVTSAAIPALPGSKGVLTSGHQPSSVLRSPAMGTLGGDFLSSLPLHEYPPAFPLGADIQGLDLFSFLQTESQHYGPSVITSLDEQDALGHFFQYRGTPSHFLGPLAPTLGSSHCSATPAPPPGRVSSIVAPGGALREGHGGPLPSGPSLTGCRSDIISLD
